The match of structure and compound is tentative.
Key:
[1] = system: OVCAR-3 cells; assay: Cell Growth Inhibition, OVCAR-3 (CellTiterGlo, 6 days); assay type: cell-based; conditions: read-out: OVCAR-3 Cell IC50 nM
From the text: (§1) MCF-7 and OVCAR-3 cells were used to evaluate the anti-proliferation activity of the CDK inhibitors. MCF-7 (ATCC, HTB-22) cells are epithelial cells from a patient with ER+ metastatic adenocarcinoma. OVCAR-3 (ATCC, HTB-161) cells were derived from malignant ascites of a patient with ovarian cancer and are known to have CCNE1 amplification. Both cell lines were maintained in RPMI media supplemented with 10% fetal bovine serum. For cell growth inhibition assay, CDK inhibitors in DMSO solution were dispensed with either Echo 655 (Beckman Coulter) or Tecan D300e (TIP) into 384-well plates (Corning #3765) and the 384-well plates were UV-sterilized prior to the assay. The inhibitors were typically tested in the 10-10,000 nM concentration range with half-log serial dilutions. MCF-7 or OVCAR-3 (500 cells/30 μL/well) were added to each well using Multidrop Combi (ThermoFisher) using standard cassettes. The assay plates with cells were cultured at 37° C., 5% CO2 for 6 days. At the end of the 6-day treatment, 30 μL of CellTiterGlo 2.0 (Promega) was added to each well and the luminescent signal was read using CLARIOstar plus (BMG). The percentage of cell growth inhibition (% CGI) was calculated using the following formula % CGI=100-100×luminescencesample/luminescenecontrol. The half maximal inhibitory concentration (IC50) was determined by nonlinear curve fitting (four parameters, variable slope).

Sequences of proteins named here, by UniProt entry; tags and fusion partners are left off.
UniProt P11802, whole entry: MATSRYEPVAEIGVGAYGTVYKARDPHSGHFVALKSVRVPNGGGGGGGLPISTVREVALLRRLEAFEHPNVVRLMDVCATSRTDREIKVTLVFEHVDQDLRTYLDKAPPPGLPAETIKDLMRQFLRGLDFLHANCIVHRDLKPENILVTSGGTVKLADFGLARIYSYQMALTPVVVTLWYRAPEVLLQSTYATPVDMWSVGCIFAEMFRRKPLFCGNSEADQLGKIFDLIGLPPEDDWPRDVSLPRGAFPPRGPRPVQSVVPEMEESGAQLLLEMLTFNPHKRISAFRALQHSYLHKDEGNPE
UniProt P24385, whole entry partner: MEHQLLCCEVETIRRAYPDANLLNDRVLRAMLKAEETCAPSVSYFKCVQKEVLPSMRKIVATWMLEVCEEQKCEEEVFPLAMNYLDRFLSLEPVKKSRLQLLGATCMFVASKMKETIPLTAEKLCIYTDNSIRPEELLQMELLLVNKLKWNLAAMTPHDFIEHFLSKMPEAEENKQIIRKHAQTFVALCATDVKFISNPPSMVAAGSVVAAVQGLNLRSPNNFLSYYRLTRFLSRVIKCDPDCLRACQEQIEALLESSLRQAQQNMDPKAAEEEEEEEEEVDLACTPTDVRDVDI

[2] = target: CDK2/Cyclin E1 full length (Homo sapiens (Human), UniProt P24941); assay: CDK2/Cyclin E1 Full length ADP-Glo Kinase Assay; conditions: read-out: CDK2/CyclinE1 IC50 nM
Protocol: CDK2/Cyclin E1 Full length ADP-Glo Kinase Assay
The purpose of CDK2/Cyclin El assay is to evaluate the inhibition (% inhibition and IC50 values) of small molecule inhibitors by using a Luminescent based ADP-Glo assay. CDK2/Cyclin El full length catalyzes the production of ADP from ATP. ADP-Glo assay monitors ADP producing biochemical reactions. ADP-Glo is performed in 2 steps upon completion of kinase reaction: a combined termination of kinase reaction and depletion of remaining ATP in the first step, and conversion of generated ADP to ATP and the newly produced ATP to light output using luciferase/luciferin reaction in the second step. The luminescent signal generated is proportional to the ADP concentration produced and is correlated with the kinase activity. CDK2/Cyclin E1 was purchased from Eurofins (Cat 14-475M). Typical reaction solutions (10 uL final reaction volume) contained 2% DMSO (±inhibitor), 10 mM MgCI2, 1 mM EGTA, 0.05% BSA, 2 mM DTT, 20 uM ATP (ATP Km=64.78 uM), 0.01% Brig-35, 0.75 uM substrate, and 0.328 nM wild-type full length CDK2/Cyclin El enzyme complex in 50 mM HEPES buffer at pH 7.5. […] Samples were incubated for 40 minutes, after which plate well luminescence was measured on a Envision microplate reader. […]

[3] = target: CDK4/Cyclin D1 (Homo sapiens (Human), UniProt P11802); assay: CDK4/Cyclin D1 CHEF Assay; conditions: read-out: CDK4/CyclinD1 AQT IC50 nM
From the text: CDK4/Cyclin D1 CHEF Assay
The purpose of CDK4/Cyclin Dl assay is to evaluate the inhibition (% inhibition and IC50 values) of small molecule inhibitors by using a Chelation-Enhance Fluorescence (CHEF) assay. In a CHEF assay, phosphorylation of a peptide substrate results in proportional increase in fluorescence. CHEF kinase assay use peptide substrates containing a synthetic alpha-amino acid with a side chain bearing an 8-hydroxyquinoline derivative (sulfonamido-oxide, Sox). Upon phosphorylation of a nearby serine, threonine or tyrosine and in the presence of Mg(II), the spectral properties of the Sox residue are altered, emitting 485 nm wavelength light when excited with a 360 nm wavelength light source. CDK4/Cyclin D1 catalyzes the phosphoryl transfer to the SOX-labeled substrate peptide AQT0258 from Assayquant Technologies. Typical reaction solutions contained 2% DMSO (+/−inhibitor), 10 mM MgCl2, 1 mM DTT, 200 uM ATP (ATP Km=195.2 uM), 0.012% Brig-35, 10 uM AQT0258 peptide, 0.02% BSA, 1% Glycerol, 0.55 mM EGTA, 2.5 nM CDK4/Cyclin D1 in 54 mM HEPES buffer at pH 7.5. The reaction was initiated with the addition of substrate solution, following a 30-minute pre-incubation of enzyme and inhibitor at 22° C. in the reaction mix. Reactions were allowed to proceed for 3 hrs at 22° C., followed by fluorescence read of the reaction. […]

[4] = system: MCF-7 cells; assay: Cell Growth Inhibition, MCF-7 (CellTiterGlo, 6 days); assay type: cell-based; conditions: read-out: MCF-7 Cell IC50 nM
From the text: as §1

Cc1cc2cnc(NC3CC4CC3CN4C)nc2c(N2CCC3(C2)CC3(F)F)n1 (stereo not shown)
IC50 [1]: 500 to 2000 nM | IC50 [2]: 500 to 2000 nM | IC50 [3]: < 200 nM | IC50 [4]: 500 to 2000 nM

Reference: patent US20250235456A1, “METHODS OF USE FOR AZA-QUINAZOLINE COMPOUNDS” (Iambic Therapeutics, Inc., priority 2024, published 2025)
